The whole screen tested about 360,000 compounds, of which about 10,000 (2.8%) were called active. The shares of active, inactive and inconclusive entries below differ from those in the screen. Calls come from the whole dose curve; as a rule, active = well fitted inhibition curve with a large enough effect; inconclusive = small, poorly fitted or top-dose-only effect; inactive = flat fitted curve, though single readings scatter. Potencies beside an inconclusive call are fits to weak or partial responses and may not hold up.
What follows are compounds tested against Serine/threonine-protein kinase PLK1 (Homo sapiens) (UniProt P53350) (assay: qHTS for Inhibitors of PLK1-PDB (polo-like kinase 1 - polo-box domain): Primary Screen). Settings: Plk1 PBD binding of FITC phosphopeptide, fluorescence polarization.
% is set by controls: 0 for no effect and ±100 for the full control effect; potency is the fitted concentration of half-maximal effect.
Note: nearly all actives have a fitted effect of over 65% in size.
Throughout, for max response, negative = inhibition: series mostly up to about 57 µM.

Amino acid sequences for entries named in this document (tags omitted).
UniProt P53350, whole entry, looked up: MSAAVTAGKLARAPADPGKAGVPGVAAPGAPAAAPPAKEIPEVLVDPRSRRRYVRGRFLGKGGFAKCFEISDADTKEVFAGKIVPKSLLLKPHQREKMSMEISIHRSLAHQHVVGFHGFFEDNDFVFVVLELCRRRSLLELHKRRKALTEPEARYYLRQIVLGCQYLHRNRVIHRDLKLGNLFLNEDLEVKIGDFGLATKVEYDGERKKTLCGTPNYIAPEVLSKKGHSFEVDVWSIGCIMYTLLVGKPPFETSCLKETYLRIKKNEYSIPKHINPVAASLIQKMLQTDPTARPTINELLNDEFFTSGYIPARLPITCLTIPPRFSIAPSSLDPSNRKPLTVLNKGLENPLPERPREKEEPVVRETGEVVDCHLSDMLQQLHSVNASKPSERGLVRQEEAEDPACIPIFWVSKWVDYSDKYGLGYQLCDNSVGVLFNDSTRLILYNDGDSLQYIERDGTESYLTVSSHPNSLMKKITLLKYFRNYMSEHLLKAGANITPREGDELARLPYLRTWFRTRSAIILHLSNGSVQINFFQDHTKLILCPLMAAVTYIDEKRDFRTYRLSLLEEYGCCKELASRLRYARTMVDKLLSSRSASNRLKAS

Row | Compound | Potency | max response, negative = inhibition
1 | N#Cc1c(Nc2ccc(Cl)cc2)s[nH]c1=O | inconclusive: 21.2 µM [inhibitor, partial curve] | –
2 | N#C/C(=C\c1coc2ccccc2c1=O)C(N)=S | active: 11.9 µM | –
3 | COCCNC(=O)C(c1ccco1)N(C(=O)Cn1nnc2ccccc21)c1cc(C)ccc1C (configuration not stated) | active: 3.36 µM | –
4 | Cc1cc(C(=O)COC(=O)c2ccc(O)cc2)c(C)n1CC1CCCO1 (configuration not stated) | inconclusive: 26.7 µM [inhibitor, single point] | –
5 | C/C(CC1CC2=C(CC1(C)C)C(C)(C)CCC2)=N\NC(N)=S (configuration not stated) | active: 16.8 µM | –
6 | Fc1ccc(NC(=S)Nc2nccs2)cc1 | inconclusive: 29.9 µM [inhibitor, single point] | –
7 | CCc1sc(C(=O)Nc2ncccc2O)cc1C | – | inactive: -4.28%
8 | Cc1cc(C(F)(F)F)c(C#N)c(SCC(=O)Nc2nc3cc(Br)ccc3s2)n1 | inconclusive: 16.8 µM [inhibitor, partial curve] | –
9 | CCc1nnc(NC(=O)c2ccc3ccccc3n2)s1 | – | inactive: -22.7%
10 | CCOc1ccc(N(C)C(=O)CCc2nnc3ccc(N4CCC5(CC4)OCCO5)nn23)cc1 | inconclusive: 37.7 µM [inhibitor, single point] | –
11 | CCOC(=O)N1CCC(N(CCN(C)C)C(=S)Nc2ccccc2C)CC1 | – | inactive: -12.1%
12 | Cc1c(N2C(=O)c3ccc4c5c(ccc(c35)C2=O)CC4)c(=O)n(-c2ccccc2)n1C | inconclusive: 26.7 µM [inhibitor, single point] | –
13 | Oc1ccc(/C=N/Nc2ccc3ccccc3c2)c(O)c1 | – | inconclusive: -36.8% [inhibitor]
14 | COc1ccc(-n2cnnc2SCC(=O)Nc2cc(S(=O)(=O)N3CCCCC3)ccc2C)cc1 | – | inactive: 0.988%
15 | N#Cc1ccccc1CSc1ccccn1 | inconclusive: 37.7 µM [inhibitor, single point] | –
16 | Cc1c(CCO)c(=O)n(-c2ccccc2)n1S(=O)(=O)c1c(Cl)cc(Cl)cc1Cl | inconclusive: 26.7 µM [inhibitor, partial curve] | –
17 | C#CCOc1nc2c(c(=O)n(C)c(=O)n2C)n1Cc1ccccc1 | – | inactive: -4.72%
18 | CCOC(=O)C(C)N1C(=O)S/C(=C/c2cc(C)n(-c3ccccn3)c2C)C1=O (configuration not stated) | inconclusive: 26.7 µM [inhibitor, single point] | –
19 | Cc1c(C(=O)N2CCN(c3ccc(F)cc3)CC2)sc2nc3n(c(=O)c12)CCC3 | active: 21.2 µM | –
20 | S=C(NCCCN1CCOCC1)Nc1cccc(-c2nnc3n2CCCCC3)c1 | inconclusive: 26.7 µM [inhibitor, partial curve] | –
21 | O=C(CSc1cccc2cccc(Cl)c12)NC1=NCCS1 | – | inconclusive: -19.6% [inhibitor]
22 | CCOc1ccc(CNC(=O)Cn2ccc3cc(S(=O)(=O)N4CCCC4)ccc32)cc1 | active: 26.7 µM | –
23 | COc1ccccc1NC(=S)NCCN1CCOCC1 | inconclusive: 8.44 µM [inhibitor, single point] | –
24 | Cc1ccc(S(=O)(=O)CCNC(=O)Cc2ccccc2)cc1 | active: 9.47 µM | –

Row | Compound | Potency | max response, negative = inhibition
25 | CCOC(=O)c1c(NC(=O)c2noc(C)c2[N+](=O)[O-])sc(C(C)=O)c1C | active: 23.8 µM | –
26 | O=C(Cc1ccc(Cl)cc1)Nc1ccccc1N1CCN(C(=O)c2ccccc2)CC1 | – | inactive: -3.5%
27 | Cc1oc2c(C)c3oc(=O)c(CC(=O)N[C@@H](CC(C)C)C(=O)N[C@@H](Cc4ccccc4)C(=O)O)c(C)c3cc2c1C | inconclusive: 37.7 µM [inhibitor, single point] | –
28 | Cc1nc(-c2ccccc2)sc1C(=O)/C=C/N(C)C | active: 29.9 µM | –
29 | O=C(COC(=O)c1ccc([N+](=O)[O-])o1)NC1CCCc2ccccc21 (configuration not stated) | inconclusive: 37.7 µM [inhibitor, single point] | –
30 | COc1ccccc1Cc1c(-c2ccco2)nc2c(C)cc(Br)cn12 | active: 11.9 µM | –
31 | C[C@H](CO)N1C[C@H](C)[C@H](CN(C)S(=O)(=O)c2cccc(C#N)c2)OCc2cnnn2CCCC1=O | active: 29.9 µM | –
32 | CCOC(=O)[C@@H]1[C@H]2COc3ccccc3[C@@H]2N2C(=O)N(c3ccc(OC)cc3)C(=O)[C@@]12C | – | inactive: -3.47%
33 | COc1ccc(C)cc1N(CC(=O)N1CCCCCC1)S(C)(=O)=O | inconclusive: 37.7 µM [inhibitor, single point] | –
34 | CCOc1cccc2sc(Cl)nc12 | inconclusive: 29.9 µM [inhibitor, single point] | –
35 | c1ccc2c(c1)SCc1nnc(-c3ccncc3)n1-2 | inconclusive: 33.6 µM [inhibitor, single point] | –
36 | Cc1ccc(Cn2c(C3CCCN3c3nc(-c4ccc(F)cc4)cs3)nc3cc(C(F)(F)F)ccc32)cc1 (configuration not stated) | inconclusive: 21.2 µM [inhibitor, single point] | –
37 | CCOC(=O)C1=C(C)N(C[C@@H]2CC[C@@H](Cc3ccc(-c4ccccc4)cc3)O2)C(=O)NC1c1ccc(C(F)(F)F)cc1 (some centres not stated) | – | inactive: -12.5%
38 | O=C(NCC1CCCCC1)c1cccc(-c2ccc(O)cc2)c1 | – | inactive: -6.77%
39 | COC(=O)CCCCC1SCC2NC(=O)NC21O (configuration not stated) | – | inconclusive: -35.6% [inhibitor]
40 | Cc1cc(OC(C)C(=O)N/N=C/CC(C)c2ccccc2)ccc1Cl (configuration not stated) | inconclusive: 37.7 µM [inhibitor, single point] | –
41 | COc1ccc(C(CCN2CCCCC2)c2c(OC)cc(OC)c3c(-c4ccccc4)cc(=O)oc23)cc1 (configuration not stated) | – | inactive: -5.37%
42 | CCCCN(C(=O)c1ccc2c(c1)OCO2)c1ccccc1 | inconclusive: 23.8 µM [inhibitor, partial curve, poor fit] | –
43 | CC12CCC(C(=O)N(CSC(=S)N/N=C\c3ccccc3)C1=O)C2(C)C (configuration not stated) | active: 3.36 µM | –
44 | CCN(CC(=O)NC(C)C)C(=O)C(CCSC)NC(=O)c1cccc(C)c1 (configuration not stated) | – | inactive: -7.43%
45 | CCCc1cc(C(=O)Nc2sc3c(c2C#N)CCC3)no1 | active: 18.9 µM | –
46 | S=c1[nH]nc(Nc2ccccc2)s1 | active: 23.8 µM | –
47 | CCCCC1(Br)C(=O)N(c2ccccc2)N(c2ccccc2)C1=O | inconclusive: 2.99 µM [inhibitor, full curve, poor fit] | –
48 | Cc1ccc(C(=O)NNC(=S)Nc2cccc3ccccc23)s1 | inconclusive: 29.9 µM [inhibitor, single point] | –

Row | Compound | Potency | max response, negative = inhibition
49 | Cc1cc(C2(c3ccc(O)c(C)c3)C(=O)Nc3ccccc32)ccc1O | – | inactive: -2.1%
50 | CCOC(=O)c1c(N)sc2c1CCC(CC)C2 (configuration not stated) | inconclusive: 26.7 µM [inhibitor, partial curve] | –
51 | CC[n+]1c(S(=O)(=O)[O-])ccc2ccc(C)cc21 | inconclusive: 23.8 µM [inhibitor, single point] | –
52 | CN1CCCc2cc3c(C(F)(F)F)cc(=O)oc3nc21 | inconclusive: 11.9 µM [inhibitor, partial curve] | –
53 | CC(C)N(C(=O)[C@H]1C[C@H](CC(=O)NCCCn2ccnc2)C(=O)N2CCc3c([nH]c4ccc(Cl)cc34)[C@]12C)C(C)C | – | inactive: 3.37%
54 | O=C(O)c1ccccc1-c1ccc(C=c2sc3nc4cc(Br)cnc4n3c2=O)o1 | inconclusive: 2.38 µM [inhibitor, partial curve] | –
55 | O=C(CSc1nnc(CNC(=O)c2ccccc2F)o1)c1ccccc1 | inconclusive: 29.9 µM [inhibitor, partial curve] | –
56 | C/C(=N\NC(=O)c1nc2ccccn2c1C)c1cc2ccccc2o1 | inconclusive: 33.6 µM [inhibitor, single point] | –
57 | C=CCn1c(CC(C)(C)C)nc2ccccc21 | inconclusive: 11.9 µM [inhibitor, partial curve] | –
58 | O=[N+]([O-])c1ccc(S(=O)(=O)N/N=C/c2cccs2)cc1 | – | inactive: -28.2%
59 | Cc1[nH]n(-c2ccccc2)c(=O)c1C(c1ccccc1[N+](=O)[O-])C(C#N)C#N (configuration not stated) | active: 29.9 µM | –
60 | Cn1nccc1C(=O)N1CCCC(C(=O)c2ccc(C(F)(F)F)cc2)C1 (configuration not stated) | – | inactive: 0.732%
61 | CCc1[nH]nc2c1C(c1ccc(Br)s1)C(C#N)=C(N)O2 (configuration not stated) | inconclusive: 31.6 µM [inhibitor, partial curve] | –
62 | O=C(O)C1CCc2sc3[nH]c(=S)n(-c4ccccc4)c(=O)c3c21 (configuration not stated) | inconclusive: 26.7 µM [inhibitor, single point] | –
63 | CCC(Sc1nc2ccc(N)cc2s1)C(=O)Nc1nccs1 (configuration not stated) | – | inactive: -24.5%
64 | Cc1ccc2c(=O)cc(C(=O)NC3CCS(=O)(=O)C3)oc2c1C (configuration not stated) | inconclusive: 0.752 µM [inhibitor, single point] | –
65 | S=C(NN=C(c1ccccc1)c1ccccn1)N(Cc1ccccn1)Cc1ccccn1 | inconclusive: 26.7 µM [inhibitor, single point] | –
66 | Nc1c(Cl)cc(-c2csc(N3CCCC3c3nc4cc(Cl)c(Cl)cc4n3CCOCCO)n2)cc1Cl (configuration not stated) | inconclusive: 26.7 µM [inhibitor, single point] | –
67 | COc1ccccc1Oc1ccnc2cc(Cl)ccc12 | – | inactive: -1.84%
68 | CN(C(=O)CSc1ncnc2sccc12)c1c(N)n(Cc2ccccc2)c(=O)[nH]c1=O | – | inactive: -3.63%
69 | COC(=O)C1=C(C)N=c2s/c(=C/c3cccs3)c(=O)n2C1c1cccs1 (configuration not stated) | inconclusive: 21.2 µM [inhibitor, single point] | –
70 | Cc1ccc(C)n1-c1sc2c(c1C(=O)O)CCCC2 | active: 16.8 µM | –
71 | COc1ccc(-n2nc3cc(C)c(N)c(Br)c3n2)cc1 | active: 3.77 µM | –
72 | COc1cnn(-c2ccccc2)c(=O)c1SCc1ccc(Cl)cc1Cl | – | inconclusive: -33.1% [inhibitor]

Rewritten as comma-separated lines: part of the list above
Row,Compound,Potency,"max response, negative = inhibition"
62,O=C(O)C1CCc2sc3[nH]c(=S)n(-c4ccccc4)c(=O)c3c21 (configuration not stated),"inconclusive: 26.7 µM [inhibitor, single point]",–
63,CCC(Sc1nc2ccc(N)cc2s1)C(=O)Nc1nccs1 (configuration not stated),–,inactive: -24.5%
64,Cc1ccc2c(=O)cc(C(=O)NC3CCS(=O)(=O)C3)oc2c1C (configuration not stated),"inconclusive: 0.752 µM [inhibitor, single point]",–
